# Data from PubChem BioAssay AID248 (DTP/NCI, 2004).
# The list is a part of this screen's results and no random one: its compounds were picked by chemical class. Not every dose and run of a compound is shown. T/C: endpoint of the treated group in % of that of the vehicle group. Some entries give survivors of the animals treated and no T/C: the source files T/C as zero there, which appears to mark a toxic dose or a test without result, not a measured value. Some doses without a T/C left all or most animals alive at the check, yet need not have been tolerated: survival well below the control is almost never listed, so the zero probably covers shortened survival too. Survivors were counted at the toxicity check, usually on the fifth day, unless a day is given; later deaths do not show. Schedules are NCI's codes, taken here to give the interval after Q, in days (D) or hours (H), and the number of doses after X. Where survival is the endpoint, the PubChem record calls one and a half times the control and up active, and a quarter to a half above the control has no call in these data; cut-offs in other NCI protocols can differ. Some entries were tested several times; their values stand side by side, smallest first. Some schedule codes hold Z or #, which are not explained here. Counts like (3×) stand for listed records that agree. Some entries show no survivor count and are marked so; the dose need not have been tolerated. Some T/C values are followed by the survivors on the day toxicity was checked, most often the fifth; without a count or a note in brackets, all were alive then. Some complexes appear as separate parts, the way the source draws them; their charges need not add up.
# Tested on: L1210 leukemia ip in BDF1 mice, survival T/C
# Test: NCI In Vivo Anticancer Drug Screen. Data for tumor model L1210 Leukemia (intraperitoneal) in B6D2F1 (BDF1) mice
# Conditions: T/C endpoint: mean survival time, higher T/C = longer survival
# [1] = dose: 50.0 mg/kg/injection, schedule: Q01DX001 (ip), vehicle: carboxymethylcellulose (CMC)
# [2] = dose: 100.0 mg/kg/injection, schedule: Q01DX001 (ip), vehicle: saline
# [3] = dose: 100.0 mg/kg/injection, schedule: Q04DX003 (ip), vehicle: saline
# [4] = dose: 200.0 mg/kg/injection, schedule: Q01DX001 (ip), vehicle: saline
# [5] = dose: 200.0 mg/kg/injection, schedule: Q04DX003 (ip), vehicle: saline
# [6] = dose: 400.0 mg/kg/injection, schedule: Q01DX001 (ip), vehicle: saline
# [7] = dose: 400.0 mg/kg/injection, schedule: Q04DX003 (ip), vehicle: saline
# [8] = dose: 100.0 mg/kg/injection, schedule: Q01DX001 (ip), vehicle: carboxymethylcellulose (CMC)
# [9] = dose: 200.0 mg/kg/injection, schedule: Q01DX001 (ip), vehicle: carboxymethylcellulose (CMC)
# [10] = dose: 400.0 mg/kg/injection, schedule: Q01DX001 (ip), vehicle: carboxymethylcellulose (CMC)
# [11] = dose: 50.0 mg/kg/injection, schedule: Q01DX009 (ip), vehicle: Klucel (hydroxypropylcellulose) (HPC)
# [12] = dose: 100.0 mg/kg/injection, schedule: Q01DX009 (ip), vehicle: Klucel (hydroxypropylcellulose) (HPC)
# [13] = dose: 200.0 mg/kg/injection, schedule: Q01DX009 (ip), vehicle: Klucel (hydroxypropylcellulose) (HPC)
# [14] = dose: 50.0 mg/kg/injection, schedule: Q04DX002 (ip), vehicle: saline with Tween-80
# [15] = dose: 100.0 mg/kg/injection, schedule: Q04DX002 (ip), vehicle: saline with Tween-80
# [16] = dose: 200.0 mg/kg/injection, schedule: Q04DX002 (ip), vehicle: saline with Tween-80
# [17] = dose: 400.0 mg/kg/injection, schedule: Q04DX002 (ip), vehicle: saline with Tween-80
structure (smiles),measurement,setting,value
C1CCC(NC2CCCCC2)CC1.CC(C)(Oc1ccc(N(CCCl)CCCl)cc1)C(=O)O,T/C,"dose: 12.0 mg/kg/injection, schedule: Q01DX009 (ip), vehicle: Klucel (hydroxypropylcellulose) (HPC)",114 % of control
same,T/C,"dose: 18.0 mg/kg/injection, schedule: Q01DX009 (ip), vehicle: Klucel (hydroxypropylcellulose) (HPC)",129 % of control
same,T/C,"dose: 22.0 mg/kg/injection, schedule: Q01DX001 (ip), vehicle: carboxymethylcellulose (CMC)",109 % of control
same,T/C,"dose: 22.0 mg/kg/injection, schedule: Q01DX009 (ip), vehicle: carboxymethylcellulose (CMC)",147 % of control
same,T/C,"dose: 26.0 mg/kg/injection, schedule: Q01DX009 (ip), vehicle: Klucel (hydroxypropylcellulose) (HPC)",130 % of control
same,T/C,"dose: 33.0 mg/kg/injection, schedule: Q01DX001 (ip), vehicle: carboxymethylcellulose (CMC)",112 % of control
same,T/C,"dose: 33.0 mg/kg/injection, schedule: Q01DX009 (ip), vehicle: carboxymethylcellulose (CMC)",96 % of control
same,T/C,"dose: 40.0 mg/kg/injection, schedule: Q01DX009 (ip), vehicle: Klucel (hydroxypropylcellulose) (HPC)",134 % of control
same,T/C,[1],127 % of control
same,T/C,"dose: 50.0 mg/kg/injection, schedule: Q01DX009 (ip), vehicle: carboxymethylcellulose (CMC)",94 % of control [5 of 6 alive]
same,survivor count,"dose: 60.0 mg/kg/injection, schedule: Q01DX009 (ip), vehicle: Klucel (hydroxypropylcellulose) (HPC)",6 of 6
same,T/C,"dose: 75.0 mg/kg/injection, schedule: Q01DX001 (ip), vehicle: carboxymethylcellulose (CMC)",142 % of control
same,T/C,"dose: 75.0 mg/kg/injection, schedule: Q01DX009 (ip), vehicle: carboxymethylcellulose (CMC)",93 % of control
same,survivor count,"dose: 150.0 mg/kg/injection, schedule: Q01DX001 (ip), vehicle: carboxymethylcellulose (CMC)",4 of 6
same,survivor count,"dose: 300.0 mg/kg/injection, schedule: Q01DX001 (ip), vehicle: carboxymethylcellulose (CMC)",0 of 6
ClCCNCCCCCNCCCl,T/C,"dose: 40.0 mg/kg/injection, schedule: Q01DX Z (ip), vehicle: saline",112 % of control (2×)
same,T/C,"dose: 50.0 mg/kg/injection, schedule: Q01DX001 (ip), vehicle: saline",95 % of control
same,T/C,"dose: 65.0 mg/kg/injection, schedule: Q01DX Z (ip), vehicle: saline",118 and 120 % of control
same,T/C,[2],120 % of control
same,T/C,"dose: 100.0 mg/kg/injection, schedule: Q01DX Z (ip), vehicle: saline","136, 142, 143 % of control"
same,T/C,[3],124 % of control
same,T/C,"dose: 132.0 mg/kg/injection, schedule: Q04DX003 (ip), vehicle: saline",115 and 139 % of control
same,T/C,"dose: 150.0 mg/kg/injection, schedule: Q01DX Z (ip), vehicle: saline","107, 112, 148 % of control"
same,T/C,"dose: 177.0 mg/kg/injection, schedule: Q01DX001 (ip), vehicle: saline",119 % of control
same,T/C,[4],129 % of control
same,T/C,[5],"104, 137, 146 % of control"
same,T/C,"dose: 266.0 mg/kg/injection, schedule: Q01DX001 (ip), vehicle: saline",125 % of control
same,T/C,"dose: 300.0 mg/kg/injection, schedule: Q04DX003 (ip), vehicle: saline",139 and 168 % of control
same,T/C,[6],141 and 145 % of control
same,T/C,[7],138 % of control
O=C(O)C(O)(c1ccccc1)c1ccccc1.OC1CN2CCC1CC2,T/C,[2],98 % of control [survivor count not shown]
same,T/C,[3],97 % of control [survivor count not shown]
same,T/C,[4],105 % of control [survivor count not shown]
same,T/C,[5],101 % of control [survivor count not shown]
same,T/C,[6],100 % of control [survivor count not shown]
same,T/C,[7],114 % of control [survivor count not shown]
CN=C(N=[N+]=[N-])NC#N,T/C,"dose: 50.0 mg/kg/injection, schedule: Q04DX002 (ip), vehicle: Klucel (hydroxypropylcellulose) (HPC)",93 % of control
same,T/C,"dose: 100.0 mg/kg/injection, schedule: Q04DX002 (ip), vehicle: Klucel (hydroxypropylcellulose) (HPC)",101 % of control
same,T/C,"dose: 200.0 mg/kg/injection, schedule: Q04DX002 (ip), vehicle: Klucel (hydroxypropylcellulose) (HPC)",93 % of control
O=P(Cl)(Cl)Nc1ccccn1,T/C,"dose: 5.0 mg/kg/injection, schedule: Q01DX001 (ip), vehicle: carboxymethylcellulose (CMC)",100 % of control
same,T/C,"dose: 10.0 mg/kg/injection, schedule: Q01DX001 (ip), vehicle: carboxymethylcellulose (CMC)",98 % of control [3 of 4 alive]
same,survivor count,"dose: 20.0 mg/kg/injection, schedule: Q01DX001 (ip), vehicle: carboxymethylcellulose (CMC)",1 of 4
same,survivor count,"dose: 40.0 mg/kg/injection, schedule: Q01DX001 (ip), vehicle: carboxymethylcellulose (CMC)",0 of 4
same,survivor count,[1],0 of 4
same,survivor count,"dose: 80.0 mg/kg/injection, schedule: Q01DX001 (ip), vehicle: carboxymethylcellulose (CMC)",0 of 4
same,survivor count,[8],1 of 4
same,survivor count,[9],0 of 4
same,survivor count,[10],0 of 4
O=C(c1cc2ccccc2oc1=O)N(CCCl)CCCl,T/C,[11],111 % of control
same,T/C,[12],96 % of control
same,T/C,[13],93 % of control [2 of 3 alive]
O=[N+]([O-])C1CCC(P2(=O)NC3CCCCC3S2)CC1 (stereo not given),T/C,"dose: 25.0 mg/kg/injection, schedule: Q04DX002 (ip), vehicle: saline with Tween-80",94 % of control
same,T/C,[14],97 % of control
same,T/C,[15],97 and 98 % of control
same,T/C,[16],103 % of control
same,survivor count,[17],2 of 3
ClCCN1c2ccccc2Sc2ccccc21,T/C,[8],100 % of control
same,T/C,[9],94 % of control
same,T/C,[10],94 % of control
O=C(CC(=O)c1ccccc1)OC1CN2CCC1CC2 (stereo not given),T/C,"dose: 100.0 mg/kg/injection, schedule: Q04DX002 (ip), vehicle: saline",96 % of control
same,T/C,"dose: 200.0 mg/kg/injection, schedule: Q04DX002 (ip), vehicle: saline",98 % of control [2 of 3 alive]
same,T/C,"dose: 400.0 mg/kg/injection, schedule: Q04DX002 (ip), vehicle: saline",98 % of control [2 of 3 alive]
CN1CC2CC(C1)CN(C)C2.F[P-](F)(F)(F)(F)F,T/C,"dose: 100.0 mg/kg/injection, schedule: Q04DX003 (ip), vehicle: saline with Tween-80",100 % of control
same,T/C,"dose: 200.0 mg/kg/injection, schedule: Q04DX003 (ip), vehicle: saline with Tween-80",100 % of control
same,T/C,"dose: 400.0 mg/kg/injection, schedule: Q04DX003 (ip), vehicle: saline with Tween-80",102 % of control [5 of 6 alive]
O=C1OCCN1[N+](=O)[O-],T/C,[14],100 [survivor count not shown] and 102 % of control [survivor count not shown]
same,T/C,[15],"96 [survivor count not shown], 101 [survivor count not shown], 104 % of control [survivor count not shown]"
same,T/C,[16],"100 [survivor count not shown], 112 [survivor count not shown], 130 % of control [survivor count not shown]"
CNCCN(C)C(=N)C(=N)N(C)CCNC,T/C,[15],93 % of control
same,T/C,[16],90 % of control
same,T/C,[17],90 % of control [2 of 3 alive]
CC1(C)CN1P(=O)(Nc1ccccn1)N1CC1(C)C (stereo not given),T/C,"dose: 25.0 mg/kg/injection, schedule: Q01DX009 (ip), vehicle: Klucel (hydroxypropylcellulose) (HPC)",103 % of control
same,T/C,[11],108 % of control
same,T/C,[12],114 % of control
same,T/C,[13],141 % of control
